Data published in patent US20130123358A1, “Metabolic Benefits to Butyrate as a Chronic Diet Supplement” (priority 2009, published 2013).

Test system: C57BL/6J mice on high fat diet
Assay: Energy metabolism and body composition in diet-induced obesity, butyrate started with HFD
Format: in vivo, mouse
Details: butyrate 5% w/w in HFD vs control
Protocol: Male C57BL/6J (4 weeks in age) and ob/ob mice (4 weeks in age) were purchased from the Jackson Laboratory (Bar Harbor, Me.). After one week quarantine, the C57BL/6J mice were fed on the high fat diet (HFD, D12331, Research Diets, New Brunswick, N.J.), which contains 58% calories in fat. The ob/ob mice were fed on Chow diet (5001, Lab Diet) that contains 13.4% calories in fat. All of the mice were housed in the animal facility with a 12:12-h light-dark cycle and constant temperature (22-24° C.). The mice were free to access water and diet. […]
Body composition was measured using quantitative nuclear magnetic resonance (NMR) as previously described (15). […] The fat and lean mass were recorded within 1 min. […]
Energy expenditure, respiratory exchange ratio (RER), spontaneous physical movement, and food intake were measured simultaneously for each mouse with the Comprehensive Laboratory Animal Monitoring System (Columbus Instruments, Columbus, Ohio) as described previously (15). […] After 48 h of adaptation, the data were recorded for all parameters and used in analysis of the energy metabolism.
Butyrate was initially tested for prevention of dietary obesity. […] Calorie intake was monitored four times in the first ten weeks. […]

CCCC(=O)[O-].[Na+] [sodium butyrate]
spontaneous physical activity at the night time (10 wks on HFD): increased activity | fat content in feces (fat absorption) (24 hr feces at 12 weeks): identical in the feces of two groups
